No constants are given. Whether binding was seen depends on the method and setting. Some entries that bind do so weakly or less than the wild type. For part of these data: Sequences can lack the tags named with a protein.
Key:
[1] = molecular target: Tax-His6 (HTLV-1) (UniProt P03409); experiment: co-purification; band in the purified recombinant Tax preparation; SDS-PAGE, Coomassie
[2] = molecular target: T1, GST-hNAP1 (human) (UniProt P55209); experiment: pull-down; GST-fused histone chaperone (25 pmol) on 20 µl glutathione agarose beads; equal concentration of rH1.0, 16 h, 4 °C; 50 mM Tris-HCl pH 7.9, 150 mM KCl, 12.5 mM MgCl2, 1 mM EDTA, 20 % glycerol, 0.5 % NP40, 0.1 % Chaps, 100 ng/µl BSA; SDS-PAGE, Coomassie; both purified
T1 sequence: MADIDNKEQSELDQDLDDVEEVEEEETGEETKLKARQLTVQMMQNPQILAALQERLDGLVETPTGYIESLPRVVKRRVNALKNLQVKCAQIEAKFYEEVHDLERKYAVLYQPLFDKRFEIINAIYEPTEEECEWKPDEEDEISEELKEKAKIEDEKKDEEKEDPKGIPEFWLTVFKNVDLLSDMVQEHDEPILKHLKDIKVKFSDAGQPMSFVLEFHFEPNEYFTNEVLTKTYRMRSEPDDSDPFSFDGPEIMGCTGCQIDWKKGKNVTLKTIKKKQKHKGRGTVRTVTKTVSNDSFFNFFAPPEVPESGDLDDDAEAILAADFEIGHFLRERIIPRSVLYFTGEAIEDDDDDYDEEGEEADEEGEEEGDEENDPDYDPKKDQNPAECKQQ

Amino acid sequences for entries named in this document (tags omitted). A change or cut given only in a name is not applied to a line headed by its entry. Chains listed by the source or under a name are the forms on record and can include a tag or linker.
His6-GST-SET/Taf1β (Q01105, form named): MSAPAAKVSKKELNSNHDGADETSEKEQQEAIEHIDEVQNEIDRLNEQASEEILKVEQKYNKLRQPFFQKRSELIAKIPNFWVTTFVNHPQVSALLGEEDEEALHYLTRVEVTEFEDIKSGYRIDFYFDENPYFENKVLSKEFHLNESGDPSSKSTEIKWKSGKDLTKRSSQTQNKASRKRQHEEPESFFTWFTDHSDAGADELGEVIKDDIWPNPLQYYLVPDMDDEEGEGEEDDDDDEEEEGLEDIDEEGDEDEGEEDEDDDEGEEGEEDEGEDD
UniProt P07305: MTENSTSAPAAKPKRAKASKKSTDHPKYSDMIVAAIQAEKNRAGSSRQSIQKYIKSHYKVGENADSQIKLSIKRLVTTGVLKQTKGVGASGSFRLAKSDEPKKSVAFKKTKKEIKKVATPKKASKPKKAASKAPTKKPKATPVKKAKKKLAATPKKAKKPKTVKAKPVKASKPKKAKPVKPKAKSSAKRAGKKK

[3] = molecular target: His6-GST-SET/Taf1β (human) (UniProt Q01105); experiment: as above

binding [2]	binding [3]	Substance	binding [1]
–	–	GroEL (from UniProt P0A6F5 1-548)	binds
binds	binds	linker histone rH1.0 (from UniProt P07305 1-194)	–

From PMC4558729
